The exact form of at least one protein or probe is not confirmed. For some of these results: Weaker means in comparison with the reference protein, sequence or condition of that experiment. For some of these results: At least one verdict was read from the data and is not stated in words by the source.
Columns and labels:
Experiment in all cases: EMSA
[1] = system: Ct Ycg1 24-1006 (Chaetomium thermophilum); settings: did not reproduce the distinct upshift; EMSA: 10 mM HEPES-KOH pH 7.5, 125 mM NaCl, 5 mM MgCl2, 1 mM DTT, 30 min, gels at 4 C, 0.2 uM 35-bp or 10 nM 2.1-kb DNA; recombinant protein; label: 5' 6-FAM on strand 1
[2] = system: Ct Brn1 336-714 (Chaetomium thermophilum); settings: did not reproduce the distinct upshift; EMSA: 10 mM HEPES-KOH pH 7.5, 125 mM NaCl, 5 mM MgCl2, 1 mM DTT, 30 min, gels at 4 C, 0.2 uM 35-bp or 10 nM 2.1-kb DNA; recombinant protein; protein details: N-terminal GST-HRV3C; label: 5' 6-FAM on strand 1
[3] = system: Ct Ycs4 3-1222 (Chaetomium thermophilum); settings: EMSA: 10 mM HEPES-KOH pH 7.5, 125 mM NaCl, 5 mM MgCl2, 1 mM DTT, 30 min, gels at 4 C, 0.2 uM 35-bp or 10 nM 2.1-kb DNA; recombinant protein; label: 5' 6-FAM on strand 1
[4] = system: Sc Smc2 + Sc Smc4 + Sc Ycs4 + Sc Ycg1 + Sc Brn1; settings: EMSA: 10 mM HEPES-KOH pH 7.5, 125 mM NaCl, 5 mM MgCl2, 1 mM DTT, 30 min, gels at 4 C, 0.2 uM 35-bp or 10 nM 2.1-kb DNA; recombinant protein; protein details: C-terminal StrepII x3,C-terminal His12-HA3; label: 5' 6-FAM on strand 1

Sequence: CCTATAGTGAGTCGTTCGATATTACAATTCACTGG (double strand) [35-bp dsDNA]
- binding result [1]: binds more weakly
- binding result [2]: binds more weakly
- binding result [3]: binds more weakly
- binding result [4]: binds
